Source: patent publication US7341867B2, “Human preprotachykinin gene promoter” (University of Medicine & Dentistry of New Jersey, priority 1999, dated 2008)
For at least one compound, name, drawing or mass did not settle the structure.

System: CRE-binding proteins (ICER, CREB, CREM, ATF-1)
Assay: Western blot for CRE-binding proteins in bone marrow stroma
Format: cell-based, human
Settings: 5 μg/ml FK for 2 and 5 h

With `C=C[C@@]1(C)CC(=O)[C@]2(O)[C@@]3(C)[C@@H](O)CCC(C)(C)[C@@H]3[C@H](O)[C@H](OC(C)=O)[C@@]2(C)O1` [FK, forskolin] the ICER expression was “presence of ICER after 2 h and an increase by 5 h” and the “phosphorylation of CRE-binding proteins (CREB, CREM and ATF)” value was “phosphorylation of CRE-binding proteins”.
